# Laboratory results as given in patent publication US20110039695A1 (priority 2008, published 2011).
# Some of these results come from one statement about several compounds together.
# Test system: Puccinia recondita
# Experiment: Glasshouse trial: preventative control of brown rust on wheat
# Type: in vivo
# Conditions: 250 ppm spray; wheat seedlings inoculated next day; assessed after 24 h humid chamber plus 6 days; untreated plants 90% infected
smiles,measurement,value
"COc1cc(CNS(=O)(=O)c2ccc(Oc3ncc(C)cc3Cl)cc2)c(OC)nn1 [Example 1, 4-(3-chloro-5-methyl-pyridin-2-yloxy)-N-(3,6-dimethoxy-pyridazin-4-ylmethyl)-benzenesulfonamide]",infection (% diseased leaf area),less than or equal to 10%
